Experimental data as given in publication PMC11387718.

Chains of the proteins cited; added tags and fusions are not shown. Residues count along the entry.
UniProt Q922H1: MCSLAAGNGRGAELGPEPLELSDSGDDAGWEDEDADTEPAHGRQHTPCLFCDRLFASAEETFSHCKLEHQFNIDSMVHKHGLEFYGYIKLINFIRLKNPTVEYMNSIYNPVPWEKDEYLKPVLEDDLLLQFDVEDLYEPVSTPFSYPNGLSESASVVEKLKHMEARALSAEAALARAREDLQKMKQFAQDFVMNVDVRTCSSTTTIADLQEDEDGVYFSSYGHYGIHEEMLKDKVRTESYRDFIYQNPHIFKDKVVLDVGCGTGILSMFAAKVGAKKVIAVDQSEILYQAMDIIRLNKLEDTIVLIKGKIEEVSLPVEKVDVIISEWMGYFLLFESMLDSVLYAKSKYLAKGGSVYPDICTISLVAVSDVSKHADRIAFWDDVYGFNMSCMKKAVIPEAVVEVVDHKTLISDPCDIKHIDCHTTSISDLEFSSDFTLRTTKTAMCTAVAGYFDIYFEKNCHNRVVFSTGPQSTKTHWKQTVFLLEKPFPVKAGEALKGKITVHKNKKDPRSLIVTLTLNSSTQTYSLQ
UniProt P09103, residues 20-509: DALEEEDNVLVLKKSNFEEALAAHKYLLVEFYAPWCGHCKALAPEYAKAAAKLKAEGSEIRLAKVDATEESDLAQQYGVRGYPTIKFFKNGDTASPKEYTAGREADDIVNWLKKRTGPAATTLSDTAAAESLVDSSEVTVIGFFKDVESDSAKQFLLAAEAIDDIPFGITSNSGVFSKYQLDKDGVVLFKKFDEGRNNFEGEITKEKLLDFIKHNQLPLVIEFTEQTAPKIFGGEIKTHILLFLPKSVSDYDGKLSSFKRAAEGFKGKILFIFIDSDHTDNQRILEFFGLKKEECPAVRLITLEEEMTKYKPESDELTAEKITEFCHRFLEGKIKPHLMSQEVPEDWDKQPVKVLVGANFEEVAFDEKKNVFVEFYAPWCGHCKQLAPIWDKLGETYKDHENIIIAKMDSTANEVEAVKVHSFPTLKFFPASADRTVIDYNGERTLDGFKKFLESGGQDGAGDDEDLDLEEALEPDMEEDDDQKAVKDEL
UniProt P20029, residues 20-655: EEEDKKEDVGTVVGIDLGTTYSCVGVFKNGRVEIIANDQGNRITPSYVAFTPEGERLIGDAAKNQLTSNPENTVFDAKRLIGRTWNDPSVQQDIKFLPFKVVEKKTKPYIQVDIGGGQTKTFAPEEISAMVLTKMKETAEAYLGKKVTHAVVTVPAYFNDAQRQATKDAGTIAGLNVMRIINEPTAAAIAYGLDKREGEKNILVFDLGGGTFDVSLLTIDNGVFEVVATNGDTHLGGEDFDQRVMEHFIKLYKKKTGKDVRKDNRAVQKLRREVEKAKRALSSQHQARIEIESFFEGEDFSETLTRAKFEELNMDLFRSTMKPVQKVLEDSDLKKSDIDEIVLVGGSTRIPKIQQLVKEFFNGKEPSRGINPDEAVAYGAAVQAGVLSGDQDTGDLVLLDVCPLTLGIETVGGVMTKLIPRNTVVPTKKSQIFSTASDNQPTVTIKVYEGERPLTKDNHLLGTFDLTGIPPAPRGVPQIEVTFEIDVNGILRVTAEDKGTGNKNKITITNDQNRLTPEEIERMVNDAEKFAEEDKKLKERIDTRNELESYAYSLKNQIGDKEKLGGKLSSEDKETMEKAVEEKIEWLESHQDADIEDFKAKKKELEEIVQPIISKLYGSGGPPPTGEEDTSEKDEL
UniProt P27773, residues 25-505: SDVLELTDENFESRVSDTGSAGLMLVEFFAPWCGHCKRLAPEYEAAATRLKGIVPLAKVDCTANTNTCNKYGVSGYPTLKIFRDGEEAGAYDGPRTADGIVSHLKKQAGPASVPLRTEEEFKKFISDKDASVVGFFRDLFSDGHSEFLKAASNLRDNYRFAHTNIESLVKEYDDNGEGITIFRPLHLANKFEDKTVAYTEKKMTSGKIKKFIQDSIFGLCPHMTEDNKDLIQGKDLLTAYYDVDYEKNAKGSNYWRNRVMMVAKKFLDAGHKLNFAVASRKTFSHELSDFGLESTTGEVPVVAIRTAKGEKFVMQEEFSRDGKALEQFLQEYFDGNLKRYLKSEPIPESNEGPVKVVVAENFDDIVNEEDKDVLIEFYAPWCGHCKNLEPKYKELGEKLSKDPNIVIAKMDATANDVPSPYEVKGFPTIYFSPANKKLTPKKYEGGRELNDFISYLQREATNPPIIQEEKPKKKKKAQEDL

Biological target: protein arginine methyltransferase 3 (PRMT3), mouse, in Hepa1-6 cells (mouse (endogenous in Hepa1-6)) (UniProt Q922H1)
Experiment: affinity purification with mass spectrometry; IP of PRMT3 from Hepa1-6 cell lysate (IP lysis buffer, antibody overnight at 4 °C, protein A/G agarose beads), LC-MS of the eluted peptides

Molecule	binding
P4HB, mouse, in Hepa1-6 cells (from UniProt P09103 20-509)	binds
CCT8, mouse, in Hepa1-6 cells (protein, UniProt P42932 1-548) MALHVPKAPGFAQMLKDGAKHFSGLEEAVYRNIQACKELAQTTRTAYGPNGMNKMVINRLEKLFVTNDAATILRELEVQHPAAKMIVMASHMQEQEVGDGTNFVLVFAGALLELAEELLRIGLSVSEVISGYEIACKKAHEILPELVCCSAKNLRDVDEVSSLLRTSIMSKQYGSETFLAKLIAQACVSIFPDSGNFNVDNIRVCKILGSGIYSSSVLHGMVFKKETEGDVTSVKDAKIAVYSCPFDGMITETKGTVLIKTAEELMNFSKGEENLMDAQVKAIAGTGANVIVTGGKVADIALHYANKYNIMLVRLNSKWDLRRLCKTVGATALPKLTPPVQEEMGHCDSVYLSEVGDTQVVVFKHEKEDGAISTIVLRGSTDNLMDDIERAVDDGVNTFKVLTRDKRLVPGGGATEIELAKQITSYGETCPGLEQYAIKKFAEAFEAIPRALAENSGVKANEVISKLYSVHQEGNKNVGLDIEAEVPAVKDMLEASILDTYLGKYWAIKLATNAAVTVLRVDQIIMAKPAGGPKPPSGKKDWDDDQND	binds

Now from value to molecule:

binding	Molecule
binds	HSPA5, mouse, in Hepa1-6 cells (from UniProt P20029 20-655)
binds	PDIA3, mouse, in Hepa1-6 cells (from UniProt P27773 25-505)
no binding	MDA5, mouse, in Hepa1-6 cells (protein, UniProt Q8R5F7 1-1025) MSIVCSAEDSFRNLILFFRPRLKMYIQVEPVLDHLIFLSAETKEQILKKINTCGNTSAAELLLSTLEQGQWPLGWTQMFVEALEHSGNPLAARYVKPTLTDLPSPSSETAHDECLHLLTLLQPTLVDKLLINDVLDTCFEKGLLTVEDRNRISAAGNSGNESGVRELLRRIVQKENWFSTFLDVLRQTGNDALFQELTGGGCPEDNTDLANSSHRDGPAANECLLPAVDESSLETEAWNVDDILPEASCTDSSVTTESDTSLAEGSVSCFDESLGHNSNMGRDSGTMGSDSDESVIQTKRVSPEPELQLRPYQMEVAQPALDGKNIIICLPTGSGKTRVAVYITKDHLDKKKQASESGKVIVLVNKVMLAEQLFRKEFNPYLKKWYRIIGLSGDTQLKISFPEVVKSYDVIISTAQILENSLLNLESGDDDGVQLSDFSLIIIDECHHTNKEAVYNNIMRRYLKQKLRNNDLKKQNKPAIPLPQILGLTASPGVGAAKKQSEAEKHILNICANLDAFTIKTVKENLGQLKHQIKEPCKKFVIADDTRENPFKEKLLEIMASIQTYCQKSPMSDFGTQHYEQWAIQMEKKAAKDGNRKDRVCAEHLRKYNEALQINDTIRMIDAYSHLETFYTDEKEKKFAVLNDSDKSDDEASSCNDQLKGDVKKSLKLDETDEFLMNLFFDNKKMLKKLAENPKYENEKLIKLRNTILEQFTRSEESSRGIIFTKTRQSTYALSQWIMENAKFAEVGVKAHHLIGAGHSSEVKPMTQTEQKEVISKFRTGEINLLIATTVAEEGLDIKECNIVIRYGLVTNEIAMVQARGRARADESTYVLVTSSGSGVTEREIVNDFREKMMYKAINRVQNMKPEEYAHKILELQVQSILEKKMKVKRSIAKQYNDNPSLITLLCKNCSMLVCSGENIHVIEKMHHVNMTPEFKGLYIVRENKALQKKFADYQTNGEIICKCGQAWGTMMVHKGLDLPCLKIRNFVVNFKNNSPKKQYKKWVELPIRFPDLDYSEYCLYSDED
no binding	RIG-I, mouse, in Hepa1-6 cells (protein, UniProt Q6Q899 1-926) MTAEQRQNLQAFRDYIKKILDPTYILSYMSSWLEDEEVQYIQAEKNNKGPMEAASLFLQYLLKLQSEGWFQAFLDALYHAGYCGLCEAIESWDFQKIEKLEEHRLLLRRLEPEFKATVDPNDILSELSECLINQECEEIRQIRDTKGRMAGAEKMAECLIRSDKENWPKVLQLALEKDNSKFSELWIVDKGFKRAESKADEDDGAEASSIQIFIQEEPECQNLSQNPGPPSEASSNNLHSPLKPRNYQLELALPAKKGKNTIICAPTGCGKTFVSLLICEHHLKKFPCGQKGKVVFFANQIPVYEQQATVFSRYFERLGYNIASISGATSDSVSVQHIIEDNDIIILTPQILVNNLNNGAIPSLSVFTLMIFDECHNTSKNHPYNQIMFRYLDHKLGESRDPLPQVVGLTASVGVGDAKTAEEAMQHICKLCAALDASVIATVRDNVAELEQVVYKPQKISRKVASRTSNTFKCIISQLMKETEKLAKDVSEELGKLFQIQNREFGTQKYEQWIVGVHKACSVFQMADKEEESRVCKALFLYTSHLRKYNDALIISEDAQMTDALNYLKAFFHDVREAAFDETERELTRRFEEKLEELEKVSRDPSNENPKLRDLYLVLQEEYHLKPETKTILFVKTRALVDALKKWIEENPALSFLKPGILTGRGRTNRATGMTLPAQKCVLEAFRASGDNNILIATSVADEGIDIAECNLVILYEYVGNVIKMIQTRGRGRARDSKCFLLTSSADVIEKEKANMIKEKIMNESILRLQTWDEMKFGKTVHRIQVNEKLLRDSQHKPQPVPDKENKKLLCGKCKNFACYTADIRVVETSHYTVLGDAFKERFVCKPHPKPKIYDNFEKKAKIFCAKQNCSHDWGIFVRYKTFEIPVIKIESFVVEDIVSGVQNRHSKWKDFHFERIQFDPAEMSV

These are yes or no findings as the source states them, for the method shown. In cells and extracts the contact can be indirect. These calls come from enrichment with a bait or labelling near it, and not all partners need be listed. No binding means not detected with the bait.
